Results as given in article PMC7713382, “Structural analysis and insight into effector binding of the niacin-responsive repressor NiaR from Bacillus halodurans” (Scientific Reports, 2020).

Columns and labels:
[1] = target: BhNiaR H152A (Bacillus halodurans) (UniProt Q9KDJ7); experiment: EMSA; conditions: metal-free mutant, severe defect, EMSA: 20 mM Tris pH 8.0, 100 mM KCl, 1 mM MgCl2, 1 mM DTT, 5% glycerol, 80 nM DNA, 0-3 µM protein, recombinant protein
[2] = target: BhNiaR (Bacillus halodurans) (UniProt Q9KDJ7); experiment: EMSA; conditions: no niacin, Zn2+-bound protein; EMSA: 20 mM Tris pH 8.0, 100 mM KCl, 1 mM MgCl2, 1 mM DTT, 5% glycerol, +/- 1 mM niacin; 80 nM DNA, 0-3 µM protein; recombinant protein; residues 1-179; label: none (SYBR Green stain)

Measured: binding result

CTCATTTACATATGTCTTGACATCTATATTTACA (double strand) [nifS-nadB promoter 34-bp cognate DNA (type I)]
binds more weakly: [1]; 1 mM niacin, residues 1-179, label: none (SYBR Green stain) | [1]; no niacin, +/- 1 mM niacin, residues 1-179, label: none (SYBR Green stain) | [2]

Weaker means in comparison with the reference protein, sequence or condition of that experiment. For part of these data: The exact form of at least one protein or probe is not confirmed.
